Data from publication PMC9097636, “FOXO transcription factors differ in their dynamics and intra/intermolecular interactions” (Current Research in Structural Biology, 2022).
No constants are given. Whether binding was seen depends on the method and setting. Some results given as binding are weak or reduced against the parent protein; the word gives no strength.

Chains of the proteins cited; added tags and fusions are not shown. Residues count along the entry.
UniProt Q12778, residues 143-270: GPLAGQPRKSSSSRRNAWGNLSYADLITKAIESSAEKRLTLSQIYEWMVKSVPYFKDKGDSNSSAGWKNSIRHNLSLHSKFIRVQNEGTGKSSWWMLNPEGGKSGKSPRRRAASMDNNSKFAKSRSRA

Assays:
Test in all cases: NMR titration; 1H,15N HSQC of 50 uM 15N-labelled FH domain, unlabelled CR3 added in trans (25 uM or 50 uM); 50 mM NaH2PO4/Na2HPO4 pH 6.5, 0.04% NaN3, 5 mM DTT; 25 C; read-out chemical shift perturbations and line broadening; both purified
[1] = target: FOXO6 forkhead (FH) domain, amino acids 71 to 191 (human) (UniProt A8MYZ6)
[2] = target: FOXO3 forkhead (FH) domain, amino acids 141 to 260 (human) (UniProt O43524)
[3] = target: FOXO1 forkhead (FH) domain, amino acids 143 to 270 (human) (UniProt Q12778)

Row | binding [1] | binding [2] | binding [3] | Binder
1 | binds weakly | binds weakly | binds weakly | FOXO3 conserved region 3 (CR3, transactivation domain), amino acids 593 to 646 (domain or fragment, UniProt O43524 593-646) YSTSANLPVMGHEKFPSDLDLDMFNGSLECDMESIIRSELMDADGLDFNFDSLI
2 | – | binds weakly | – | FOXO6 conserved region 3 (CR3, transactivation domain), amino acids 418 to 472 (domain or fragment, human, UniProt A8MYZ6 418-472, looked up, human FOXO6, Uniprot A8MYZ6, amino acids 418 to 472, CR3; Unlabelled in the titrations; also called FOXO6^CR3; CR3 of FOXO6; source: E. coli BL21-DE3 Star, lysed in 6 M urea, purified (Ni-NTA, TEV cleavage, second Ni-NTA, SEC)) YAAAAAGPLGAAPDRFPADLDLDMFSGSLECDVESIILNDFMDSDEMDFNFDSAL
